In publication PMC9808371, “Extracellular Galectin 4 Drives Immune Evasion and Promotes T-cell Apoptosis in Pancreatic Cancer” (Cancer Immunology Research, 2022):
These are yes or no findings as the source states them, for the method shown. Some binding calls cover weakened binding; strength is not graded here.

Experiments:
[1] = biological target: T1, human recombinant CD3ε/γ heterodimer (human, UniProt P07766 23-126; P09693 23-116); experiment: SPR; CD3 heterodimers amine-coupled at pH 4 to CM5 chips (mouse CD3ε/δ 3,900 RU, human CD3ε/δ 9,800 RU, human CD3ε/γ 8,900 RU); gal 4 as analyte, 2-fold dilutions 16 to 0.5 μmol/L, 120 s association, 120 s dissociation; 25°C; 10 mmol/L phosphate pH 7.4, 140 mmol/L NaCl, 0.27 mmol/L KCl, 0.05% Tween 20; Biacore T-200; both purified
T1 chain 1: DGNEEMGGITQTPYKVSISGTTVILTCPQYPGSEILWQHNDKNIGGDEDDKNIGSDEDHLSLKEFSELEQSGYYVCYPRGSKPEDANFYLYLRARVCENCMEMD
T1 chain 2: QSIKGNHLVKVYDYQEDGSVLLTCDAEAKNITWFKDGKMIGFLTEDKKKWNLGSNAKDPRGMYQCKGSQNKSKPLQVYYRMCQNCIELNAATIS

[2] = biological target: T2, mouse CD3ε/δ heterodimer (mouse) (UniProt P22646+P04235); experiment: as above
T2 sequence 1: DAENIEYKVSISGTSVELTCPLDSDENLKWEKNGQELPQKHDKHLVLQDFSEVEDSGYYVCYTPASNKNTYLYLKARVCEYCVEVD
T2 sequence 2: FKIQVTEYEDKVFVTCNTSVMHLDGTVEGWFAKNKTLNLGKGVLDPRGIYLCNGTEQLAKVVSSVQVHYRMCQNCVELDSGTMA

B1: human recombinant galectin 4 (natural protein, UniProt P56470 1-323, looked up)
chain: MAYVPAPGYQPTYNPTLPYYQPIPGGLNVGMSVYIQGVASEHMKRFFVNFVVGQDPGSDVAFHFNPRFDGWDKVVFNTLQGGKWGSEERKRSMPFKKGAAFELVFIVLAEHYKVVVNGNPFYEYGHRLPLQMVTHLQVDGDLQLQSINFIGGQPLRPQGPPMMPPYPGPGHCHQQLNSLPTMEGPPTFNPPVPYFGRLQGGLTARRTIIIKGYVPPTGKSFAINFKVGSSGDIALHINPRMGNGTVVRNSLLNGSWGSEEKKITHNPFGPGQFFDLSIRCGLDRFKVYANGQHLFDFAHRLSAFQRVDTLEIQGDVTLSYVQI
notes: galectin 4 (LGALS4), Homo sapiens, cDNA NM_006149.4 recloned from pcDNA3.1-C-(k)DYK into pET-His1a (NcoI + Acc65I); The Hisx6-TEV tag was removed before use; also called gal 4; hgal 4; source: E. coli Rosetta (DE3), purified (NiNTA, tag removal with TEV protease, second NiNTA run); not shown: His6, N-terminal, cleaved
binding [1]: binds | binding [2]: binds
